These are yes or no findings as the source states them, for the method shown. In cells and extracts the contact can be indirect. Some entries that bind do so weakly or less than the wild type. Tags and fused reporters may be left off the sequences shown.
Tests used:
Assay in all cases: co-IP; transfected S2 cells, lysates after 48 h; anti-Flag M2 affinity gel or anti-Myc affinity gel; NaCl adjusted to 500 mM, washes with 500 mM NaCl; Western blot; for Smo with Smurf (Figure 5C,D) cells treated with Hh medium for 12 h
[1] = biological target: T1, Flag-tagged Smurf (Drosophila) (UniProt Q9V853)
T1 sequence: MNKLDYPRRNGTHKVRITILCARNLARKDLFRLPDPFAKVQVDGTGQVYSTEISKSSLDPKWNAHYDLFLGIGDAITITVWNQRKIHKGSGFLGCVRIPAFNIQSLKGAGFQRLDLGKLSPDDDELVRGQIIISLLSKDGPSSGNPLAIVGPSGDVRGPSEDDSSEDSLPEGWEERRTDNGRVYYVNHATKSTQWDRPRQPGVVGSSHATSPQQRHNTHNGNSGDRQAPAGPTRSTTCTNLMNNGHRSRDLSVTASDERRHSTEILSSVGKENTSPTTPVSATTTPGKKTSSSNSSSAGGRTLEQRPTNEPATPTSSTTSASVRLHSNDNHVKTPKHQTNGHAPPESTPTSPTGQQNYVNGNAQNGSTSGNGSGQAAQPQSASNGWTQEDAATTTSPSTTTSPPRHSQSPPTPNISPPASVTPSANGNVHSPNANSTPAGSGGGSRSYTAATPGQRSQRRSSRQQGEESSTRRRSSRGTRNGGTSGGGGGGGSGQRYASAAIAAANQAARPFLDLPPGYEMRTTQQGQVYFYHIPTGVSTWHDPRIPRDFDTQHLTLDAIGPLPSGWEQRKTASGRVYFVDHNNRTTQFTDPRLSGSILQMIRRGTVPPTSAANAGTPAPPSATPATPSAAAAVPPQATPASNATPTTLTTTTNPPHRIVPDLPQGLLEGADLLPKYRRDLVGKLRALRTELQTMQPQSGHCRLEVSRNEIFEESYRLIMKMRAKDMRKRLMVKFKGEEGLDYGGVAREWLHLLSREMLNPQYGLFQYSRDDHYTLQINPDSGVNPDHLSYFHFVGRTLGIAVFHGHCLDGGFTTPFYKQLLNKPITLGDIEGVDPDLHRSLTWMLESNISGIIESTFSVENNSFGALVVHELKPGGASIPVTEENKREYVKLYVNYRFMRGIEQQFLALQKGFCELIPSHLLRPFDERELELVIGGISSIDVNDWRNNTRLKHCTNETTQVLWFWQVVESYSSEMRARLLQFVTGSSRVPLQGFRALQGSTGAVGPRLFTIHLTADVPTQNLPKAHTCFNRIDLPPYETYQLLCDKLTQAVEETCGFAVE

By UniProt entry, the sequences of proteins in these tests, tags left out.
UniProt Q9Y0H4: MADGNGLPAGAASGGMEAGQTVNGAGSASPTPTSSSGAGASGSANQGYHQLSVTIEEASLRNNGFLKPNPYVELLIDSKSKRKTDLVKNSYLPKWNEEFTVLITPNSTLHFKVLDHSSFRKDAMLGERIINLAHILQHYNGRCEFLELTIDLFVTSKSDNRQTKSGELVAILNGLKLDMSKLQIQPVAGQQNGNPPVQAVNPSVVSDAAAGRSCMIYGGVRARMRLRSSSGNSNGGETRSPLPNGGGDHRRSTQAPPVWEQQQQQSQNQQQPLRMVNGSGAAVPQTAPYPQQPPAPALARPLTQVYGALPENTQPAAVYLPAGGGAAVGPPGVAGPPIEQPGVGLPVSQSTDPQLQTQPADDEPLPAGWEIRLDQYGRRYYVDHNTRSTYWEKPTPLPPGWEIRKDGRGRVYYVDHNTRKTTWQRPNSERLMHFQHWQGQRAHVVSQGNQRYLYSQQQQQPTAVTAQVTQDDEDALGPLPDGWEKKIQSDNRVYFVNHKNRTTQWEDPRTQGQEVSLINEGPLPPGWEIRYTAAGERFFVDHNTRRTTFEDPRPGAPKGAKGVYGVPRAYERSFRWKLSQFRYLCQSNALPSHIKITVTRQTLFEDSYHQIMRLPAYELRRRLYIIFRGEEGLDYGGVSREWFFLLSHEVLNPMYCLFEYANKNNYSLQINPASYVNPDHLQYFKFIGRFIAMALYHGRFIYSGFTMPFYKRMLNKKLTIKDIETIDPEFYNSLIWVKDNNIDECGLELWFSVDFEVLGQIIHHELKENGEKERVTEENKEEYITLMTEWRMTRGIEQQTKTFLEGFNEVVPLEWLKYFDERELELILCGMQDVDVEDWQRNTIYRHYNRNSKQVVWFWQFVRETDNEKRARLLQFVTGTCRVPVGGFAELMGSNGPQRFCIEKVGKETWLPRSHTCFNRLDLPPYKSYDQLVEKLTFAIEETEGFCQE

[2] = biological target: T2, Nedd4 (Drosophila), tagged, in S2 cells (Drosophila) (UniProt Q9VVI3)
T2 sequence: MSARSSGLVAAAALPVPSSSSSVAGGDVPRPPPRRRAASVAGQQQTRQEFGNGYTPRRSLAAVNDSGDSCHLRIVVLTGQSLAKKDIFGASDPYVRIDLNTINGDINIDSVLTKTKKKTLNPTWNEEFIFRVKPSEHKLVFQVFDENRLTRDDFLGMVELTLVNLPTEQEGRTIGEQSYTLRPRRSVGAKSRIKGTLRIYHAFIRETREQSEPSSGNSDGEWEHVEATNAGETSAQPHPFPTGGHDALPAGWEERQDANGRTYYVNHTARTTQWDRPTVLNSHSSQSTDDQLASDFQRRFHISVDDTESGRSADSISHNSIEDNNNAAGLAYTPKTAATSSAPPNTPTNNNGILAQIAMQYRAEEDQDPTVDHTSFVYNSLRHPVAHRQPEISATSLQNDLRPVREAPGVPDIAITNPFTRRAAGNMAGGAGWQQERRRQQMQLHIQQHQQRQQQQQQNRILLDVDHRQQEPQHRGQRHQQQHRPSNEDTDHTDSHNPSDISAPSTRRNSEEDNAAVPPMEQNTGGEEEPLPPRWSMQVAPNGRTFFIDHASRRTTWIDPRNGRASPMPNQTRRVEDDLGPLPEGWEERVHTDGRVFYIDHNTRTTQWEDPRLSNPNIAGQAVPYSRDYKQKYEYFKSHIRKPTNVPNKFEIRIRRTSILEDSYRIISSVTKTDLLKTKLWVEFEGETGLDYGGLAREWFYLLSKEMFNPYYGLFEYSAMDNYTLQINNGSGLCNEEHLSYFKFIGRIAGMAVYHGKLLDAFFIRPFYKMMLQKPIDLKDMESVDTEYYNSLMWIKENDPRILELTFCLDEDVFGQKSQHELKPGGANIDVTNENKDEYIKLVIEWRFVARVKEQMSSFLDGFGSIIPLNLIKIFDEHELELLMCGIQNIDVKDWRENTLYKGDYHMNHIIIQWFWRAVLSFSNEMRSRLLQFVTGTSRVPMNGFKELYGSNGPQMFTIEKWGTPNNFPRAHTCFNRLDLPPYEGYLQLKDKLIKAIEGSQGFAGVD

[3] = biological target: T3, Flag-tagged Smurf^C1029A (catalytic dead form of Smurf) (Drosophila) (UniProt Q9V853)
T3 sequence: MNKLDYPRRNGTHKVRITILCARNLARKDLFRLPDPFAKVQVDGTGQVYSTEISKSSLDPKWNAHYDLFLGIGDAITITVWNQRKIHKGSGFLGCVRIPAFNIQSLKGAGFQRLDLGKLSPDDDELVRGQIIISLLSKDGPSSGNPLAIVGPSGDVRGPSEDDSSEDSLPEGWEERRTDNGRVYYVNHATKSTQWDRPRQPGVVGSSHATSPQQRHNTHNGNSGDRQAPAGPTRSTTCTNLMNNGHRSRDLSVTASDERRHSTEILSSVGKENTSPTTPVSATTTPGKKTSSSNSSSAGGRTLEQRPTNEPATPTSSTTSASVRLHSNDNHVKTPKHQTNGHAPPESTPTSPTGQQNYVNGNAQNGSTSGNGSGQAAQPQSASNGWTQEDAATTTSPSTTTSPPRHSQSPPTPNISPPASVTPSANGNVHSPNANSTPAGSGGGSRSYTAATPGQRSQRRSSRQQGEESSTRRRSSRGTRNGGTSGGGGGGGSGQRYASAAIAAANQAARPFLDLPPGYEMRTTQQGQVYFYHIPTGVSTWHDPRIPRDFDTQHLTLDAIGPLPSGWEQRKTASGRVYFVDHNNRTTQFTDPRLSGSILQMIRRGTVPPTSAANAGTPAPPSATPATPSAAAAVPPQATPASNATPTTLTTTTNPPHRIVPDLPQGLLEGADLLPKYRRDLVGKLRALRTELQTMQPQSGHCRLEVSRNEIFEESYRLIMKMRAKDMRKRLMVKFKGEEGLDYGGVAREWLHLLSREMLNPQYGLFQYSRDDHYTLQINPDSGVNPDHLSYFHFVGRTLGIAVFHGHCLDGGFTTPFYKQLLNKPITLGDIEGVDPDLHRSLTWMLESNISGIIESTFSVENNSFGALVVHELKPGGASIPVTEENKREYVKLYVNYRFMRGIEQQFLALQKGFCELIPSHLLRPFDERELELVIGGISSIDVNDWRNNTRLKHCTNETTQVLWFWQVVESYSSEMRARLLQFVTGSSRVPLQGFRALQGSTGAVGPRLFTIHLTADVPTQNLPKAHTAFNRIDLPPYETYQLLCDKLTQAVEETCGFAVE

[4] = biological target: Suppressor of deltex (Su(dx)), tagged, in S2 cells (Drosophila) (UniProt Q9Y0H4)

Measured: binding

B1: Myc-tagged Ptc (full-length Patched) (receptor, UniProt P18502 1-1286)
chain: MDRDSLPRVPDTHGDVVDEKLFSDLYIRTSWVDAQVALDQIDKGKARGSRTAIYLRSVFQSHLETLGSSVQKHAGKVLFVAILVLSTFCVGLKSAQIHSKVHQLWIQEGGRLEAELAYTQKTIGEDESATHQLLIQTTHDPNASVLHPQALLAHLEVLVKATAVKVHLYDTEWGLRDMCNMPSTPSFEGIYYIEQILRHLIPCSIITPLDCFWEGSQLLGPESAVVIPGLNQRLLWTTLNPASVMQYMKQKMSEEKISFDFETVEQYMKRAAIGSGYMEKPCLNPLNPNCPDTAPNKNSTQPPDVGAILSGGCYGYAAKHMHWPEELIVGGAKRNRSGHLRKAQALQSVVQLMTEKEMYDQWQDNYKVHHLGWTQEKAAEVLNAWQRNFSREVEQLLRKQSRIATNYDIYVFSSAALDDILAKFSHPSALSIVIGVAVTVLYAFCTLLRWRDPVRGQSSVGVAGVLLMCFSTAAGLGLSALLGIVFNAASTQVVPFLALGLGVDHIFMLTAAYAESNRREQTKLILKKVGPSILFSACSTAGSFFAAAFIPVPALKVFCLQAAIVMCSNLAAALLVFPAMISLDLRRRTAGRADIFCCCFPVWKEQPKVAPPVLPLNNNNGRGARHPKSCNNNRVPLPAQNPLLEQRADIPGSSHSLASFSLATFAFQHYTPFLMRSWVKFLTVMGFLAALISSLYASTRLQDGLDIIDLVPKDSNEHKFLDAQTRLFGFYSMYAVTQGNFEYPTQQQLLRDYHDSFVRVPHVIKNDNGGLPDFWLLLFSEWLGNLQKIFDEEYRDGRLTKECWFPNASSDAILAYKLIVQTGHVDNPVDKELVLTNRLVNSDGIINQRAFYNYLSAWATNDVFAYGASQGKLYPEPRQYFHQPNEYDLKIPKSLPLVYAQMPFYLHGLTDTSQIKTLIGHIRDLSVKYEGFGLPNYPSGIPFIFWEQYMTLRSSLAMILACVLLAALVLVSLLLLSVWAAVLVILSVLASLAQIFGAMTLLGIKLSAIPAVILILSVGMMLCFNVLISLGFMTSVGNRQRRVQLSMQMSLGPLVHGMLTSGVAVFMLSTSPFEFVIRHFCWLLLVVLCVGACNSLLVFPILLSMVGPEAELVPLEHPDRISTPSPLPVRSSKRSGKSYVVQGSRSSRGSCQKSHHHHHKDLNDPSLTTITEEPQSWKSSNSSIQMPNDWTYQPREQRPASYAAPPPAYHKAAAQQHHQHQGPPTTPPPPFPTAYPPELQSIVVQPEVTVETTHSDSNTTKVTATANIKVELAMPGRAVRSYNFTS
binds: all assays above

Source: PMC3841102, “Activation of Smurf E3 Ligase Promoted by Smoothened Regulates Hedgehog Signaling through Targeting Patched Turnover” (PLoS Biology, 2013)
